From PubChem BioAssay AID248 (DTP/NCI, 2004) come the findings set out here.

The assay relates to L1210 leukemia ip in BDF1 mice, survival T/C. The assay can be described thus: NCI In Vivo Anticancer Drug Screen. Data for tumor model L1210 Leukemia (intraperitoneal) in B6D2F1 (BDF1) mice. As to conditions: T/C endpoint: mean survival time, higher T/C = longer survival.
Setting [1] is: dose: 5.0 mg/kg/injection, schedule: Q01DX Z (ip), vehicle: methylcellulose (MC).
Where [2] appears, read: dose: 200.0 mg/kg/injection, schedule: Q04DX003 (ip), vehicle: saline with Tween-80.
The mark [3] stands for this setting: dose: 400.0 mg/kg/injection, schedule: Q04DX003 (ip), vehicle: saline with Tween-80.
[4] abbreviates: dose: 400.0 mg/kg/injection, schedule: Q01DX009 (ip), vehicle: saline with Tween-80.

The list does not hold the whole screen: it gathers tests that were run many times, whatever their T/C, doses with no T/C, and many T/C values between a quarter and a half above the control. Further doses and runs are listed elsewhere. T/C: endpoint of the treated group in % of that of the vehicle group. Some doses have a count of surviving animals in place of a T/C: the source files T/C as zero there, which appears to mark a toxic dose or a test without result, not a measured value. Some survivor counts are full or nearly so, which does not show that the dose was tolerated: survival well below the control is almost never listed, so the zero probably covers shortened survival too. Survivors were counted at the toxicity check, usually on the fifth day, unless a day is given; later deaths do not show. Schedule codes are those of the source, taken here to give the interval after Q, in days (D) or hours (H), and the number of doses after X. Some schedules carry Z or #; the key to these is not given. For survival time, this PubChem deposit counts one and a half times the control or more as active, and values a quarter to a half above the control carry no call in these data; other NCI protocols may use other cut-offs. Some T/C values are followed by the survivors on the day toxicity was checked, most often the fifth; where none is given, no animal had died by that day. Some entries were tested several times; their values stand side by side, smallest first. Additions like (4×) give the number of equal values in this list.

As to `O=C(Nc1ccc(C2=NCCN2)cc1)c1ccc(C(=O)Nc2ccc(C3=NCCN3)cc2)c(NC(=O)c2ccc(C(=O)Nc3cc(C(=O)Nc4ccc(C5=NCCN5)cc4)ccc3C(=O)Nc3ccc(C4=NCCN4)cc3)cc2)c1`, the survivor count by setting is: (dose: 2.5 mg/kg/injection, schedule: Q01DX Z (ip), vehicle: methylcellulose (MC)) 0 of 6; under setting [1], 0 of 6; (dose: 10.0 mg/kg/injection, schedule: Q01DX Z (ip), vehicle: methylcellulose (MC)) 0 of 6; (dose: 60.0 mg/kg/injection, schedule: Q01DX Z (ip), vehicle: methylcellulose (MC)) 0 of 6; (dose: 120.0 mg/kg/injection, schedule: Q01DX Z (ip), vehicle: methylcellulose (MC)) 0 of 6; (dose: 240.0 mg/kg/injection, schedule: Q01DX Z (ip), vehicle: methylcellulose (MC)) 0 of 6. In addition, the T/C under setting [1] was 127 % of control; the T/C (dose: 15.0 mg/kg/injection, schedule: Q01DX Z (ip), vehicle: methylcellulose (MC)) is 128 % of control; the T/C (dose: 25.0 mg/kg/injection, schedule: Q01DX009 (ip), vehicle: saline) was 90, 94, 104 [5 of 6 alive], 110 % of control; the T/C (dose: 30.0 mg/kg/injection, schedule: Q01DX Z (ip), vehicle: methylcellulose (MC)) was 135 % of control; the T/C (dose: 37.5 mg/kg/injection, schedule: Q03DX Z (ip), vehicle: carboxymethylcellulose (CMC)) is 127 % of control; the T/C (dose: 50.0 mg/kg/injection, schedule: Q01DX009 (ip), vehicle: saline) is recorded as 89, 93, 103, 112 % of control. The T/C was 125 % of control (dose: 75.0 mg/kg/injection, schedule: Q01DX015 (ip), vehicle: carboxymethylcellulose (CMC)); 130 % of control (dose: 87.5 mg/kg/injection, schedule: Q07DX Z (ip), vehicle: carboxymethylcellulose (CMC)); 96 (2×), 130, 142 % of control (dose: 100.0 mg/kg/injection, schedule: Q01DX009 (ip), vehicle: saline); 96 [5 of 6 alive], 100, 155, 178 % of control (dose: 200.0 mg/kg/injection, schedule: Q01DX009 (ip), vehicle: saline); 127 and 137 % of control (dose: 960.0 mg/kg/injection, schedule: Q01DX001 (ip), vehicle: other); 136 % of control (dose: 2160.0 mg/kg/injection, schedule: Q01DX001 (ip), vehicle: other).

For the compound `CN(C)c1ccc(/C=C/C=N/N=C/c2ccccc2O)cc1`, where the note is “dose: 300.0 mg/kg/injection, schedule: Q01DX001 (ip), vehicle: other”, the survivor count is on record as 6 of 6.

As for `CN(C)/C=N\c1c(C#N)c(CC#N)nn1-c1ccccc1`, the survivor count runs as follows: under setting [2], 3 of 6; under setting [3], 0 of 6.

Consider `CCC1(c2ccccc2)NC(=O)NC1=O` (centres undefined), for which, under setting [4], the survivor count is on record as 1 of 6.

In the case of `Cc1ccc(S(=O)(=O)OCC2C3CCC(C3=O)C2COS(=O)(=O)c2ccc(C)cc2)cc1` (centres undefined), the survivor count under setting [2] is on record as 6 of 6.

Turning to `CC(C)C(N)(CCN1CCOCC1)c1cccc2ccccc12` (centres undefined), the survivor count is 0 of 6 under setting [4] and 0 of 3 (dose: 400.0 mg/kg/injection, schedule: Q04DX002 (ip), vehicle: saline with Tween-80).

With `NNC(=O)CCc1ccccc1Br`, the survivor count under setting [3] was 4 of 6.

For the compound `CCOC(=O)CCCN(c1sc(C)c(-c2ccccc2)c1C(=O)OCC)S(=O)(=O)c1ccc(C)cc1`, the survivor count (dose: 100.0 mg/kg/injection, schedule: Q01DX009 (ip), vehicle: saline with Tween-80) is reported as 6 of 6.

Take `CCCC1(CCC)CN(C)C1=O`: for the setting “dose: 400.0 mg/kg/injection, schedule: Q04DX003 (ip), vehicle: saline”, the survivor count is 1 of 4.

For the compound `C/C=C(\C)c1cc(=O)c2c(C)cc3c(c2o1)C(=O)c1c(O)c(C2CC(C)(N(C)C)C(O)C(C)O2)cc(C2CC(N(C)C)C(O)C(C)O2)c1C3=O` (centres undefined), the survivor count (dose: 400.0 mg/kg/injection, schedule: Q01DX001 (ip), vehicle: saline with Tween-80) is listed as 0 of 6.
